# Primary screen of a compound library

Each number is a percent effect as filed. How 0% and 100% were set is not recorded. Most values in the screen are low, and negative values occur. This is an unselected part of the compounds tested. Two or more numbers in one place are separate tests of the same structure; such repeats can differ widely.

A: 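Growth of Mycobacterium tuberculosis over 4 days (cholesterol / DPPC medium with tyloxapol); the read-out is not stated. Concentration: 50 µM. Higher reads as more growth inhibition (inferred: compounds with an IC50 in retests scored well above the rest). About 69,000 compounds were tested under these conditions; 0.54% (about 370) showed 50% or more at least once.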
B: 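Whole-cell growth test on Mycobacterium tuberculosis, read after 3 days in glucose-containing 7H9 medium; the read-out is not stated. Concentration: 50 µM. The record gives no direction; compounds that gave an IC50 in retests scored well above the rest, so higher reads as more growth inhibition. About 69,000 compounds were tested under these conditions; 1.1% (about 760) showed 50% or more at least once.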

- CCOc1cccc2c1OCC(C(=O)NS(=O)(=O)c1c(C)noc1C)=C2 : A: 35.71%; B: 58.03%
- Cc1ccc(S(=O)(=O)N2CCN(C)c3ccncc32)cc1F : A: -2.474%; B: 8.733% and 0.02611%
- CCc1ccc(CN2CCOC(Cc3cccc(F)c3)C2)nc1 (configuration not stated) : A: 52.3%; B: 50.41%
- CCC(CO)NCc1ccc(-c2ccc(Br)cc2)o1.Cl (configuration not stated) : A: 41.93%; B: 48.03% and 58.01%
- O=C(O)C(F)(F)F.[H][C@@]12C[C@H](C(=O)N(C)C)CN(Cc3ccc4c(c3)OCO4)[C@]1([H])CCO2 : A: -0.06841%; B: 9.907%
- COc1cc2nc(C)n(CC(=O)NCCO)c(=O)c2cc1OC : A: -27.32%; B: -15.7%
- Cc1ccnc(NCc2ccccc2N2CCOCC2)n1 : A: 32.92%; B: 13.41%
- CCN(CC)c1ccc(C(=O)NCc2cccnc2-n2cncn2)cn1 : A: 13.82%; B: 28.02%
- COCCN1CCCc2sc(C(=O)N3CCCN(C)CC3)nc21.O=C(O)C(F)(F)F : A: 11.79%; B: -19.5% and -38.44%
- O=C(Nc1cc(C(F)(F)F)ccc1Cl)c1ccc(N2CCOCC2)nn1 : A: -34.15%; B: -22.93%
- Cn1c(=O)ccn(CC(=O)Nc2cnccc2O)c1=O : A: -11.96%; B: -11.98%
- Cc1cc(C2CCCN2C(=O)c2cc3c(s2)CCC3)on1 (configuration not stated) : A: 9.985%; B: 18.89%
- CN(CC(=O)N1CCCC1c1cnn(C)c1)Cc1ccccc1 (configuration not stated) : A: -9.437%; B: -1.092% and -25.05%
- COCCCN1CC2(CCCCN2C(=O)c2ccsc2)CC1=O (configuration not stated) : A: 11.29%; B: 0.1522%
- Cc1cc(C(=O)N2CCc3c(ncnc3N3CCOCC3)C2)[nH]n1 : A: 7.957%; B: 10.41% and 11.1%
- O=C1N(CC2CC2)C2(CCSCC2)NC12CCCC2 : A: -7.057%; B: -20.12%
- COc1cccc2c1OCC(CNC(=O)Cc1c(C)nc(N)nc1C)C2 (configuration not stated) : A: -11.53% and 0.9572%; B: 0.00959% and -0.2228%
- c1nc(N2CCCC2)cnc1C1CCNCC1 : A: -20.28% and -17.22%; B: 4.558%
- [H][C@@]12CCCC[C@]1(O)CCN(c1ncc(C)c(-c3ccnn3C)n1)C2 : A: 7.132% and 18.78%; B: -11.27%
- COc1ccc(CNc2cccnc2-n2cccn2)c(OC)c1OC : A: 5.175%; B: 8.388% and 1.049%
- Cc1cc(C)nc(C2CCN(C(=O)c3cncnc3C)C2)n1 (configuration not stated) : A: 5.786%; B: 21.84%
- CS(=O)(=O)NCC(=O)N1CCCC1c1noc(C2CC2)n1 (configuration not stated) : A: 15.85%; B: 13.37%
- Cc1cnn(CC2CCCN2c2ncnc3c2CCC3)c1 (configuration not stated) : A: -7.481%; B: 43.05% and 9.025%
- CC(C)NC(=O)CS(=O)(=O)Cc1coc(-c2ccc(F)cc2)n1 : A: 0.895%; B: 13.02% and 7.045%
- CC(C(=O)N1CCN(CCOc2ccccc2)CC1)n1cncn1 (configuration not stated) : A: -19.64%; B: -4.532% and -3.837%
- CN(CCn1ccc2ccccc21)C(=O)CS(C)(=O)=O : A: -25.74%; B: -21.53%
- CO[C@H]1CN(Cc2ccccc2F)C[C@@]12CCCO2 : A: -4.479%; B: 12.8%

For reference, 3 entries once more:

structure	A	B
CO[C@H]1CN(Cc2ccccc2F)C[C@@]12CCCO2	-4.479	12.8
c1nc(N2CCCC2)cnc1C1CCNCC1	-20.28 and -17.22	4.558
COc1cc2nc(C)n(CC(=O)NCCO)c(=O)c2cc1OC	-27.32	-15.7

The values are deposited in ChEMBL (CHEMBL3988442, “University of Dundee, Small-Polar-MMV Screening Library” (2021)).